Values from PubChem BioAssay AID1259425 (University of Nebraska Medical Center, 2018)

Test: 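Compare each knockdown with KSR1 silencing using changes in marker transcripts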 (primary screen)
Cell system: HCT116 human colon cancer cells
Reagents: siRNA pool against human genes, 50 nM siRNA
Detection: 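After 50 nM siRNA pool, branched-DNA assay measures six marker transcripts per well, minus blank, normalised to the geometric mean of two housekeeping transcripts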
Reading the numbers: BNIP3L mRNA: higher = more BNIP3L transcript after knockdown
Here is one part, drawn at random, of about 14,000 reagents tested. Further read-outs or replicates are left out here. Not given: the time to read-out.

gene knocked down,"BNIP3L mRNA, set 1"
"POLR2E (RNA polymerase II, I and III subunit E)",0.0677
TRAP1 (TNF receptor associated protein 1),0.162
GREB1L (GREB1 like retinoic acid receptor coactivator),0.125
KLF13 (KLF transcription factor 13),0.108
C2CD3 (C2 domain containing 3 centriole elongation regulator),0.133
CSF2 (colony stimulating factor 2),0.0681
MRPS21 (mitochondrial ribosomal protein S21),0.0584
IL23R (interleukin 23 receptor),0.0719
CAPN1 (calpain 1),0.133
AMMECR1 (AMMECR nuclear protein 1),0.196
JPH1 (junctophilin 1),0.156
DCTN1 (dynactin subunit 1),0.128
BIRC2 (baculoviral IAP repeat containing 2),0.0834
C7orf25 (chromosome 7 open reading frame 25),0.0457
F11R (F11 receptor),0.199
MAGEB2 (MAGE family member B2),0.083
HBS1L (HBS1 like translational GTPase),0.0442

Targets above whose target name starts with C or c:
gene knocked down,"BNIP3L mRNA, set 1"
C2CD3 (C2 domain containing 3 centriole elongation regulator),0.133
CSF2 (colony stimulating factor 2),0.0681
CAPN1 (calpain 1),0.133
C7orf25 (chromosome 7 open reading frame 25),0.0457

More results follow:
gene knocked down,"BNIP3L mRNA, set 1"
VPREB1 (V-set pre-B cell surrogate light chain 1),0.055
ADAM33 (ADAM metallopeptidase domain 33),0.144
GSTT1 (glutathione S-transferase theta 1),0.129
ZBBX (zinc finger B-box domain containing),0.129
PKP1 (plakophilin 1),0.148
SYCP3 (synaptonemal complex protein 3),0.448
IRGC (immunity related GTPase cinema),0.153
PAXIP1 (PAX interacting protein 1),0.122
KCNH6 (potassium voltage-gated channel subfamily H member 6),0.286
GPR17 (G protein-coupled receptor 17),0.0891
OSGEP (O-sialoglycoprotein endopeptidase),0.0779
SNF8 (SNF8 subunit of ESCRT-II),0.114
RPGRIP1 (RPGR interacting protein 1),0.215
SURF2 (surfeit 2),0.208
HSPA8 (heat shock protein family A (Hsp70) member 8),0.0449
ENPP2 (ectonucleotide pyrophosphatase/phosphodiesterase 2),0.152
IPO7 (importin 7),0.133
PTRH2 (peptidyl-tRNA hydrolase 2),0.191
TAB2 (TGF-beta activated kinase 1 (MAP3K7) binding protein 2),0.089
IL1RAP (interleukin 1 receptor accessory protein),0.0528
PIGX (phosphatidylinositol glycan anchor biosynthesis class X),0.198
TDP1 (tyrosyl-DNA phosphodiesterase 1),0.0936
CUL1 (cullin 1),0.0483
ORM1 (orosomucoid 1),0.149
ORC1 (origin recognition complex subunit 1),0.112
"HSFX1 (heat shock transcription factor family, X-linked 1)",0.0635
NR1H4 (nuclear receptor subfamily 1 group H member 4),0.0454
UGT1A8 (UDP glucuronosyltransferase family 1 member A8),0.137
DLK1 (delta like non-canonical Notch ligand 1),0.0857
SCD5 (stearoyl-CoA desaturase 5),0.128
LRRN2 (leucine rich repeat neuronal 2),0.162
TCIRG1,0.0383
ZNRF1 (zinc and ring finger 1),0.174
